Results deposited as PubChem BioAssay AID652272 (Drosophila RNAi Screening Center, 2013).

Screen: 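Genome-wide knock-down search for components of Hedgehog signalling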 (primary screen)
System: Drosophila clone 8 (Cl8) cells
Reagents: long dsRNA against Drosophila genes
Detection: 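Firefly light from a Hedgehog-responsive ptc promoter reporter and Renilla reference light, both read on a plate reader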
Scale: firefly Hh reporter signal: higher = more ptc reporter light; Renilla reference signal: higher = more Renilla control light
Rule for the call: 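Hit when the z-score averaged over two replicates is under -2 or over +3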
Calls: active = hit: reporter lowered or raised; inactive = not a hit
The screen tested about 21,000 reagents; below is a random part of those that have a named target and a result. Of all reagents, 503 (2.4%) were called active. 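Raw plate light values, not normalised; calls rest on replicate z-scores that were not deposited; hits include reporter decreases as well as increases.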 Unmarked entries are inactive. A plus sign joins genes that one reagent is predicted to hit. Not given: the amount of reagent, the time to read-out.

After knock-down of CG42540 (GeneID 38562) [DRSC08327], the record shows firefly Hh reporter signal, replicate 1 = 86748; firefly Hh reporter signal, replicate 2 = 48082; Renilla reference signal, replicate 1 = 4016; Renilla reference signal, replicate 2 = 1914.
Knock-down of CG42540 (GeneID 38562) [DRSC08328] came out at: firefly Hh reporter signal, replicate 1 = 48197; firefly Hh reporter signal, replicate 2 = 34153; Renilla reference signal, replicate 1 = 5197; Renilla reference signal, replicate 2 = 2674.
CG42540 (GeneID 38562) [DRSC08593] gave firefly Hh reporter signal, replicate 1 = 9893; firefly Hh reporter signal, replicate 2 = 7576; Renilla reference signal, replicate 1 = 2072; Renilla reference signal, replicate 2 = 731.
After knock-down of CG3106 (GeneID 31909) [DRSC18279], the screen gave firefly Hh reporter signal, replicate 1 = 1.03e5; firefly Hh reporter signal, replicate 2 = 79463; Renilla reference signal, replicate 1 = 2700; Renilla reference signal, replicate 2 = 1997.
Taf10b (GeneID 33468) [DRSC00792] showed firefly Hh reporter signal, replicate 1 = 1.17e5; firefly Hh reporter signal, replicate 2 = 99894; Renilla reference signal, replicate 1 = 2881; Renilla reference signal, replicate 2 = 2393.
After knock-down of CG7453 (GeneID 32903) [DRSC20046], the record shows firefly Hh reporter signal, replicate 1 = 92688; firefly Hh reporter signal, replicate 2 = 2.18e5; Renilla reference signal, replicate 1 = 2820; Renilla reference signal, replicate 2 = 9344.
With knock-down of Rcd5 (GeneID 38478) [DRSC08180], the record shows firefly Hh reporter signal, replicate 1 = 1.00e5 (active); firefly Hh reporter signal, replicate 2 = 73095; Renilla reference signal, replicate 1 = 2521; Renilla reference signal, replicate 2 = 1787.
Amyrel (GeneID 36863) [DRSC05920] scored firefly Hh reporter signal, replicate 1 = 78700; firefly Hh reporter signal, replicate 2 = 64257; Renilla reference signal, replicate 1 = 3792; Renilla reference signal, replicate 2 = 3056.
For cato (GeneID 36813) [DRSC07589], the entry reads firefly Hh reporter signal, replicate 1 = 70177; firefly Hh reporter signal, replicate 2 = 44196; Renilla reference signal, replicate 1 = 1600; Renilla reference signal, replicate 2 = 3469.
CG17159 + CG17162 [DRSC20899] showed firefly Hh reporter signal, replicate 1 = 50042; firefly Hh reporter signal, replicate 2 = 1.60e5; Renilla reference signal, replicate 1 = 1056; Renilla reference signal, replicate 2 = 6212.
After knock-down of CG17159 + CG17162 [DRSC20900], the record shows firefly Hh reporter signal, replicate 1 = 74817; firefly Hh reporter signal, replicate 2 = 2.26e5; Renilla reference signal, replicate 1 = 1592; Renilla reference signal, replicate 2 = 9203.
Knock-down of esc (GeneID 34595) [DRSC03529] gave: firefly Hh reporter signal, replicate 1 = 90208; firefly Hh reporter signal, replicate 2 = 50737; Renilla reference signal, replicate 1 = 3507; Renilla reference signal, replicate 2 = 2365.

Part of the list above, set out differently:
gene	amplicon	firefly Hh reporter signal, replicate 1	firefly Hh reporter signal, replicate 2	Renilla reference signal, replicate 1	Renilla reference signal, replicate 2
CG42540 (GeneID 38562)	DRSC08328	48197	34153	5197	2674
CG42540 (GeneID 38562)	DRSC08593	9893	7576	2072	731
